Test results: PubChem BioAssay AID651640 (Broad Institute, 2012)
In all, about 350,000 compounds went through this assay and about 6,000 (1.7%) were called active. Inconclusive means that the source gave no clear call. Such entries were picked first, then a sample of the others. Rule as the data show it: active = CPE inhibition above about 20% (passing the limit was not always enough); inconclusive = no clear call, values can overlap the other calls; tested in BHK-21 cells.

Test: protection of cells from dengue 2 killing – plate reader, single concentration, primary screen (AID 651640);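 also: 0% = median of neutral control wells and 100% = median of positive control wells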
Details: DENV2-infected cells, cytopathic effect rescue, at 9.99 µM, active compounds read high

Row | SMILES | CPE inhibition
1 | O=C(CSc1nnc(NC(=O)c2ccccc2[N+](=O)[O-])s1)NC1CCCC1 | inconclusive: 38.8%
2 | CCCC#Cc1cnc2c(c1)C(=O)N([C@H](C)CO)C[C@H](C)[C@H](CN(C)C(=O)c1cccnc1)O2 | inconclusive: 32.3%
3 | Cc1c(Cl)cccc1NC(=S)NC(=O)CCN1C(=O)c2ccccc2C1=O | inconclusive: 22.5%
4 | C[C@@H]1CCCCO[C@H](CN(C)S(=O)(=O)c2ccc(F)cc2)[C@H](C)CN([C@@H](C)CO)C(=O)c2cc(NC(=O)Nc3ccc4c(c3)OCO4)ccc2O1 | inactive: -4.52%
5 | Cc1nc2ccccc2c2c1CC(C)S2 (stereo not drawn) | inconclusive: 36.5%
6 | Cc1ccc(S(=O)(=O)Nc2cccc3cccnc23)c([N+](=O)[O-])c1 | inactive: -11.3%
7 | COc1ccc(CN(C)Cc2c(O)ccc3cc(Br)ccc23)cc1OC | inactive: -1.48%
8 | COc1ccccc1/C=C1\SC(=O)N(CCC(=O)NCCCn2ccnc2)C1=O | inconclusive: 20.5%
9 | COc1cccc(S(=O)(=O)N[C@@H]2CC[C@H](CCNC(=O)Nc3cc(F)ccc3F)O[C@@H]2CO)c1 | inconclusive: 20.8%
10 | Cc1noc(C)c1CC(=O)NC1CC(C)(C)Cc2c1cnn2-c1ccccc1 (stereo not drawn) | inconclusive: 27.6%
11 | C[C@H](CO)N1C[C@H](C)[C@@H](CN(C)Cc2ccncc2)OCCCC[C@H](C)Oc2ccc(NS(=O)(=O)c3ccccc3)cc2C1=O | inactive: 14.5%
12 | Cc1c(C(=O)Nc2cccc(F)c2)cnn1-c1ccccc1 | active: 49.7%
13 | C[C@@H]1CCCCO[C@@H](CN(C)S(=O)(=O)c2ccc(F)cc2)[C@@H](C)CN([C@H](C)CO)C(=O)c2cc(N(C)C)ccc2O1 | inconclusive: 61.3%
14 | C[C@H]1C=C(C(=O)NCc2nc3ccccc3[nH]2)O[C@@H](OCc2ccc(CO)cc2)C1 | inconclusive: 58.5%
15 | Cc1ccccc1S(=O)(=O)N[C@@H]1CC[C@@H](CCNS(=O)(=O)c2cccc(F)c2)O[C@@H]1CO | inconclusive: 55.1%
16 | O=C(c1ccccc1Cc1ccccc1)N1CCN(S(=O)(=O)c2ccccc2)CC1 | active: 68.2%
17 | COc1ccc(C(CNC(=O)COc2cc(C)ccc2Cl)N2CCCCC2)cc1 (stereo not drawn) | active: 37.2%
18 | C[C@H](CO)N1C[C@H](C)[C@@H](CN(C)C(=O)CC2CC2)Oc2cc(C3=CCCC3)ccc2S1(=O)=O | inactive: 1.82%
19 | CCOC(=O)C1CCN(c2c(N3CCCC(C(=O)OCC)C3)c(=O)c2=O)CC1 (stereo not drawn) | inconclusive: 25.2%
20 | Cc1ccc(NC(=O)c2cc(=O)[nH]c3ccc(S(=O)(=O)N4CCOCC4)cc23)cc1 | inconclusive: 31.4%
21 | CC1CCCC(NC(=O)c2cc(S(=O)(=O)N3CCCCC3)c[nH]2)C1C (stereo not drawn) | inconclusive: 32.5%
22 | O=C(Nc1ccccc1)N[C@@H]1CC[C@@H](CCn2cc(-c3ccccc3F)nn2)O[C@@H]1CO | inconclusive: 30.7%

Filtered by structure: those above with four or more nitrogen atoms.
Row | SMILES | CPE inhibition
1 | O=C(CSc1nnc(NC(=O)c2ccccc2[N+](=O)[O-])s1)NC1CCCC1 | inconclusive: 38.8%
2 | CCCC#Cc1cnc2c(c1)C(=O)N([C@H](C)CO)C[C@H](C)[C@H](CN(C)C(=O)c1cccnc1)O2 | inconclusive: 32.3%
4 | C[C@@H]1CCCCO[C@H](CN(C)S(=O)(=O)c2ccc(F)cc2)[C@H](C)CN([C@@H](C)CO)C(=O)c2cc(NC(=O)Nc3ccc4c(c3)OCO4)ccc2O1 | inactive: -4.52%
8 | COc1ccccc1/C=C1\SC(=O)N(CCC(=O)NCCCn2ccnc2)C1=O | inconclusive: 20.5%
10 | Cc1noc(C)c1CC(=O)NC1CC(C)(C)Cc2c1cnn2-c1ccccc1 (stereo not drawn) | inconclusive: 27.6%
11 | C[C@H](CO)N1C[C@H](C)[C@@H](CN(C)Cc2ccncc2)OCCCC[C@H](C)Oc2ccc(NS(=O)(=O)c3ccccc3)cc2C1=O | inactive: 14.5%
22 | O=C(Nc1ccccc1)N[C@@H]1CC[C@@H](CCn2cc(-c3ccccc3F)nn2)O[C@@H]1CO | inconclusive: 30.7%

The listing continues:

Row | SMILES | CPE inhibition
23 | CCCC#Cc1ccc2c(c1)O[C@H](CN(C)C(=O)c1cnccn1)[C@@H](C)CN([C@H](C)CO)S2(=O)=O | inconclusive: 32.4%
24 | O=C(C1CCCCC1)N1CC[C@@H]2[C@H](CO)Nc3ccc(Br)cc3[C@@H]21 | inconclusive: 45.3%
25 | CCc1cc(C(c2ccccn2)N2CCN(C)CC2)c(NC(=O)c2ccccc2)s1 (stereo not drawn) | inconclusive: 20.3%
26 | COc1ccc(-c2cc(C(=O)NC3CCCC3)c3ccccc3n2)cc1 | inconclusive: 30.1%
27 | COc1ccc(CN(C)C[C@H]2OCCCC[C@@H](C)Oc3ccc(NS(=O)(=O)c4ccc(Cl)cc4)cc3C(=O)N([C@H](C)CO)C[C@@H]2C)cc1 | inconclusive: 29.6%
28 | CCCNC(=O)N1[C@H](C#N)[C@@H](c2ccc(-c3cccc(OC)c3)cc2)[C@H]1CO | inconclusive: 24.8%
29 | Cc1ccc(-c2csc(NCCn3c(C)nc4cc(C(F)(F)F)ccc43)n2)cc1 | active: 45%
30 | CN(C)CC#Cc1cccc(-c2nc(C(=O)N[C@@H]3CCN(Cc4ccccc4)C3)cc3c2[C@H](CCO)N(S(=O)C(C)(C)C)C3)c1 (stereo partly drawn) | active: 47.5%
31 | Cc1noc(C)c1C(=O)N1CCC1(C)C(=O)NS(=O)(=O)c1ccccc1C(F)(F)F (stereo not drawn) | inconclusive: 53.8%
32 | CCN(CC)C(=O)[C@H]1C[C@H](CC(=O)NCCCn2ccnc2)C(=O)N2CCc3c([nH]c4ccc(Cl)cc34)[C@]12C | inconclusive: 85.2%
33 | CC(C)C[C@H]1CN([C@@H](CC(C)C)CN2CCCC2CN2C(=S)NC[C@@H]2Cc2ccccc2)C(=S)N1CC1CCCCC1 (stereo partly drawn) | inconclusive: 27%
34 | C[C@@H]1CN([C@H](C)CO)C(=O)c2cc(C#CC3CCCCC3)cnc2O[C@H]1CN(C)C(=O)Cc1ccccn1 | inconclusive: 36.7%
35 | COC(=O)C1=C(C)N(Cc2ccccc2C(F)(F)F)C(=NCc2ccc(C(F)(F)F)cc2)NC1CCc1ccccc1 (stereo not drawn) | inactive: 3.91%
36 | O=C(CN1CCN(c2ccc(F)cc2)CC1)Nc1ccccc1 | inconclusive: 23.6%
37 | O=C(c1ccccc1NS(=O)(=O)c1ccc([N+](=O)[O-])cc1[N+](=O)[O-])N1O[C@@H]2C=C[C@H]1C2 | inconclusive: 64.3%
38 | COc1ccc(NC(=O)N(C)C[C@H]2OCCCC[C@H](C)Oc3ccc(NS(=O)(=O)c4ccc(C)cc4)cc3C(=O)N([C@@H](C)CO)C[C@H]2C)cc1 | inactive: 4.91%
39 | O=C(C[C@H]1CC[C@H]2[C@@H](COC[C@@H](O)CN2S(=O)(=O)c2ccccc2Cl)O1)NCc1ccccc1Cl | active: 72.6%
40 | Cc1noc(C)c1CN1C(=O)c2cccc([N+](=O)[O-])c2C1=O | inconclusive: 22%
41 | C[C@@H]1CN([C@H](C)CO)C(=O)Cc2cc(NC(=O)CCCCCC(=O)Nc3ccccc3N)ccc2O[C@H]1CN(C)S(=O)(=O)c1cccs1 | inconclusive: 32.4%
42 | C[C@@H]1CN([C@H](C)CO)C(=O)c2cc(NC(=O)c3ccccc3)ccc2O[C@@H](C)CCCCO[C@H]1CN(C)C(=O)Nc1ccc2c(c1)OCO2 | inactive: -6.18%
43 | Cc1ccc(C(=O)OCc2nnc(-c3ccc(Br)cc3)o2)cc1 | inactive: -1.24%
